Reference: article PMC10901513
No constants are given. Whether binding was seen depends on the method and setting. In cells and extracts the contact can be indirect. Some entries that bind do so weakly or less than the wild type.

The chains behind the UniProt entries cited, without tags or fusion partners. Where a name states a change or a piece, a line headed by the entry shows the natural chain unless it says otherwise.
UniProt Q61188: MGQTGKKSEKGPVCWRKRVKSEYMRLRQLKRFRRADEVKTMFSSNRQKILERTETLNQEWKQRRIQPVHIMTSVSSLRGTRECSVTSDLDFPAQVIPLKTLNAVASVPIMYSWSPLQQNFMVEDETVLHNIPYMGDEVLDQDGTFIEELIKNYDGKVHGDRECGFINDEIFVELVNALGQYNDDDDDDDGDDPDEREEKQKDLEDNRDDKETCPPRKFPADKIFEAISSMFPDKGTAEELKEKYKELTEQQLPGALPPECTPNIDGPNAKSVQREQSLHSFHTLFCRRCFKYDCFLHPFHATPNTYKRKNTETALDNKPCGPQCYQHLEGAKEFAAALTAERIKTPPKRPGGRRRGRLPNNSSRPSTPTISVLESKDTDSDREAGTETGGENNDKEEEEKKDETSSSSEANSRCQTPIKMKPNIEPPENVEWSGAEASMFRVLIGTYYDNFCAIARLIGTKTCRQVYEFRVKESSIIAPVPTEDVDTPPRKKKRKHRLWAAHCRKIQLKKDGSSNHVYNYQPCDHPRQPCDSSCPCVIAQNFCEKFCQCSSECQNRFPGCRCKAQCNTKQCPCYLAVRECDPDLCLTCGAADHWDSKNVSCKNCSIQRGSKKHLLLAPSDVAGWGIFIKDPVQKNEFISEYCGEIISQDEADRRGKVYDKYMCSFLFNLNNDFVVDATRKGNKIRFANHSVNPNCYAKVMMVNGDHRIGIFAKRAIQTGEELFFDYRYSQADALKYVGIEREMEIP
UniProt Q921E6: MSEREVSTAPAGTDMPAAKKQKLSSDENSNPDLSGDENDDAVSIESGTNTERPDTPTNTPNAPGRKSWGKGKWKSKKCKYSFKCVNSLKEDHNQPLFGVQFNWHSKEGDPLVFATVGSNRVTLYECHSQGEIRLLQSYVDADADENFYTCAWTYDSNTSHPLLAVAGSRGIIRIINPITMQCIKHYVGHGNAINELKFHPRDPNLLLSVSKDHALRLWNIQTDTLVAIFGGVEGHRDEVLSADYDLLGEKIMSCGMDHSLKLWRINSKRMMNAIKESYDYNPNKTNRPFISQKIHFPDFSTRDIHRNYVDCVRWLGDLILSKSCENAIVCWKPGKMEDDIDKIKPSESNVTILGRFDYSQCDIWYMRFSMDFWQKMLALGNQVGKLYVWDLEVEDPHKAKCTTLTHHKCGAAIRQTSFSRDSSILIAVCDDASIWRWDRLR
UniProt Q80U70: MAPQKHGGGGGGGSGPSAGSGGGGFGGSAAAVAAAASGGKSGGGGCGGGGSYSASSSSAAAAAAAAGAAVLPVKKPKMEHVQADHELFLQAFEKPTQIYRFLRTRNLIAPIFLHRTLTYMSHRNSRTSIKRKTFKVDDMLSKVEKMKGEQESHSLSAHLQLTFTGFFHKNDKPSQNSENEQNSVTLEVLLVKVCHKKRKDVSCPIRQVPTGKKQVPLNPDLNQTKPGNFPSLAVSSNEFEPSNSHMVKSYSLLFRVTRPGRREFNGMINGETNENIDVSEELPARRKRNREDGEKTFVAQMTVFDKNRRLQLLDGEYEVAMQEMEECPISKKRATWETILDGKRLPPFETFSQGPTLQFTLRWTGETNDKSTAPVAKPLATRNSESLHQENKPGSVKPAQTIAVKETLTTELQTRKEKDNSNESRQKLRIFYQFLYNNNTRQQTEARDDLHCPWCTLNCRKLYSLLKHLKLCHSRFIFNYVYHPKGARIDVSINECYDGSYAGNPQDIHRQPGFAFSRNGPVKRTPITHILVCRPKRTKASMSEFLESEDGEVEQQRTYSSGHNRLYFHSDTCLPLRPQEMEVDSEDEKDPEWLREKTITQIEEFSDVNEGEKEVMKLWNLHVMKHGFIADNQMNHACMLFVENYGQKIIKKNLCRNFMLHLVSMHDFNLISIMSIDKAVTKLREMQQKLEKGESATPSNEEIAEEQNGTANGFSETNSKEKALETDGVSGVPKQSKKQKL

Legend:
[1] = target: T1, L3MBTL3, mouse (mouse (endogenous in mouse embryos)) (UniProt Q8BLB7); assay: co-IP; lysates of mouse embryos (E14.5), endogenous proteins; input 1/10 of the lysates; NP40 lysis buffer (0.5% NP40, 50 mM Tris pH 7.5, 150 mM NaCl), Protein A-Sepharose
T1 sequence: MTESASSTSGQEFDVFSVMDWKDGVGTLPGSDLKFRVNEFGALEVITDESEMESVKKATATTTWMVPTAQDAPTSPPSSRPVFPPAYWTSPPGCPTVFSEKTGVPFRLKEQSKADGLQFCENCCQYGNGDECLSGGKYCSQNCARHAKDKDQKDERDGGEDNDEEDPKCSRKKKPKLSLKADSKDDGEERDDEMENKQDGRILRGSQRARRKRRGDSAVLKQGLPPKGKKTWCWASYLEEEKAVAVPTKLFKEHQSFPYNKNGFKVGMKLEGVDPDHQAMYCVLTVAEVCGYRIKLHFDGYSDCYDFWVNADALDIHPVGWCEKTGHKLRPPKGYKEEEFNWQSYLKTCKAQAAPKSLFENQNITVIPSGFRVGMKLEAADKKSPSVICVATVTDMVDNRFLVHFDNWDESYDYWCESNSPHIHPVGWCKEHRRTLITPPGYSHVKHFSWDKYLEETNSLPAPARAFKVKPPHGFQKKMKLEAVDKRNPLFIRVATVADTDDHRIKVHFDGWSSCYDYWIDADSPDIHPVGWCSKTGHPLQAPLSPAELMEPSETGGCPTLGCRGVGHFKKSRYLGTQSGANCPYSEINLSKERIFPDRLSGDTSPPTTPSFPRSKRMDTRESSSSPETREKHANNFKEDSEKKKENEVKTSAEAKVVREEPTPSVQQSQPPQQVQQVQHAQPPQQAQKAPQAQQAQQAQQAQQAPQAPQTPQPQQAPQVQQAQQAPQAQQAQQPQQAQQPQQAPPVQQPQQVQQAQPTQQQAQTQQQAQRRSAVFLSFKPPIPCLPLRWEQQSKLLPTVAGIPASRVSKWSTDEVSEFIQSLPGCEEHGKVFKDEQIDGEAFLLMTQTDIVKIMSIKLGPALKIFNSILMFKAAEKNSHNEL

[2] = target: T2, L3MBTL3, human, endogenous (human (endogenous in 293T)) (UniProt Q96JM7); assay: co-IP; 293T cells transfected with SET7 wild type, SET7 H297A or empty vector for 48 hr (MG132 5 ug/ml for the last 6 hr in Figure 4H); endogenous proteins; lysates immunoprecipitated with anti-L3MBTL3, blotted for EZH2, EZH2-K20me and L3MBTL3
T2 sequence: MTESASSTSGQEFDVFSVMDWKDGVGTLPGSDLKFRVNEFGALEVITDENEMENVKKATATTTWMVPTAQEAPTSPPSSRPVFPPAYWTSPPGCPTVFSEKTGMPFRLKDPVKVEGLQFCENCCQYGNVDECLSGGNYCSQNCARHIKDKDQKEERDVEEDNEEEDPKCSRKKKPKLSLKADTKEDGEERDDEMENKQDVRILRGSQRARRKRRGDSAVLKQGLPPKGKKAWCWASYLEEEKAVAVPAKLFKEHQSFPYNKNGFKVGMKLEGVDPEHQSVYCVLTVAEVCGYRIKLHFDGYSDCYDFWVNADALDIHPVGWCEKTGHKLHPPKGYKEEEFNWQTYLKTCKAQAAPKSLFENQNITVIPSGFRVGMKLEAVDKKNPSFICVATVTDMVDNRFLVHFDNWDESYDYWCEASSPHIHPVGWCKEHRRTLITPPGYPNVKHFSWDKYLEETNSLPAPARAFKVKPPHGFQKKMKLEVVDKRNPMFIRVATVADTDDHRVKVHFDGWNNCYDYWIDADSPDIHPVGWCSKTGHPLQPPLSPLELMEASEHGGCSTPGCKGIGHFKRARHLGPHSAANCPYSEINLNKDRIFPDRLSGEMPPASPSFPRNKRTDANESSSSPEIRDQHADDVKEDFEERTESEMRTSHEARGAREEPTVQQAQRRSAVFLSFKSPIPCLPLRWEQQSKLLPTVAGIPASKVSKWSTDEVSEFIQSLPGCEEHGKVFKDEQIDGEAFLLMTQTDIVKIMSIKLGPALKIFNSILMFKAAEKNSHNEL

[3] = target: EZH2 K20R mutant, mouse (knock-in) (mouse (endogenous in MEFs)) (UniProt Q61188); assay: co-IP; lysates of primary Ezh2 wild-type and K20R mutant MEFs immunoprecipitated with anti-EZH2, blotted for histone H3, SUZ12 and EED; K20R MEFs also with or without MK2206 (2 uM, 4 hr)
[4] = target: EZH2 (enhancer of Zeste homolog 2), mouse, wild type (mouse (endogenous in mouse embryos and MEFs)) (UniProt Q61188); assay: as above

| Substance | binding [2] | binding [3] | further results |
| --- | --- | --- | --- |
| EZH2 (enhancer of Zeste homolog 2), mouse, wild type (from UniProt Q61188 1-746) |  |  | binding [1]: binds |
| EZH2 (enhancer of Zeste homolog 2), human, endogenous (from UniProt Q15910-1 1-746) | binds |  |  |
| EED (embryonic ectoderm development), mouse (from UniProt Q921E6 1-441) |  | binds | binding [4]: binds |
| SUZ12 (suppress of Zeste 12), mouse (from UniProt Q80U70 1-741) |  | binds |  |
| K20-methylated EZH2, human, endogenous (from UniProt Q15910-1 1-746) | binds |  |  |
